Structures can show the parent of a compound that is named as a salt. About 60 (2%) of roughly 3,300 compounds showed an effect of 50% or more. The list shows a part of the results.
Test system: HCoV-OC43
Set-up: species or system RD; HTS, protection from HCoV-OC43 induced cell death, luminescent cell viability (CellCounting-Lite 2.0), inhibition rate
Settings: 24 h, 10 µM; inhibitor

Compound | OC43 Inhibition rate
CCN1C[C@]2(COC)CC[C@H](O)[C@]34C1[C@@](O)([C@@H](OC)[C@H]23)[C@@]1(O)C[C@H](OC)[C@H]2C[C@@H]4[C@@H]1[C@H]2OC [Delsoline] | -0.5%
COc1ccccc1OC [1,2-Dimethoxybenzene] | -0.2%
COc1cc2ccc(=O)oc2c2ccoc12 [Sphondin] | 0.1%
CCC1CCC(=O)O1 (centres unmarked) [γ-Hexalactone] | -0.1%
COc1cc(C=O)cc(OC)c1OC [3,4,5-Trimethoxybenzaldehyde] | -0.3%
COC[C@@]12CC[C@H](OC)[C@]34C([C@H]([C@H](OC)[C@H]13)[C@]1(O)[C@H]3[C@@H](OC(=O)c5ccccc5)[C@](O)(C[C@H]34)[C@@H](OC)[C@@H]1O)N(C)C2 [Benzoylhypaconine] | 0.5%
O=C(C[C@@H]1NCCC[C@H]1O)Cn1cnc2ccccc2c1=O [Febrifugine] | 6.4%
COc1cc2c(cc1OC)[C@@H]1C(=O)c3ccc4c(c3O[C@@H]1CO2)CC(C(C)C)O4 (some centres unmarked) [Dihydrorotenone] | -0.1%
COc1cc2c(cc1OC)[C@@H]1C(=O)c3ccc4c(c3O[C@@H]1CO2)C=CC(C)(C)O4 [Deguelin] | -2.2
C[C@H]1CC[C@@H]2N(C1)C[C@H]1[C@@H]3C[C@H]4[C@@H](C[C@@H](O)[C@H]5C[C@@H](O)CC[C@@]54C)[C@@H]3CC[C@@H]1[C@]2(C)O [Isoverticine] | 11.4%
CC(=O)OC(C)(C)/C=C/C(=O)[C@](C)(O)[C@H]1[C@H](O)C[C@@]2(C)[C@@H]3CC=C4[C@@H](C=C(O)C(=O)C4(C)C)[C@]3(C)C(=O)C[C@]12C [Cucurbitacin E] | -0.9%
CC(C)(O)/C=C/C(=O)[C@](C)(O)[C@H]1[C@H](O)C[C@@]2(C)[C@@H]3CC=C4[C@@H](C[C@H](O)C(=O)C4(C)C)[C@]3(C)C(=O)C[C@]12C [Cucurbitacin D] | 2.5%
CC(C)(O)[C@@H]1[C@H]2OC(=O)[C@@H]1[C@]1(O)C[C@H]3O[C@]34C(=O)O[C@H]2[C@]14C [Picrotin] | -0.1%
C[C@]12CC[C@H](O)C[C@H]1CC[C@@H]1[C@@H]2CC[C@]2(C)[C@@H](c3ccc(=O)oc3)C[C@H]3O[C@]132 [Resibufogenin] | 6.7%
CC(=O)O[C@H]1C[C@]2(O)[C@@H]3CC[C@@H]4C[C@@H](O)CC[C@]4(C)[C@H]3CC[C@]2(C)[C@H]1c1ccc(=O)oc1 [Bufotalin] | -8.2%
CC(C)=CCC[C@@](C)(O)[C@H]1CC[C@]2(C)[C@@H]1[C@H](O)C[C@@H]1[C@@]3(C)CC[C@H](O[C@@H]4O[C@H](CO)[C@@H](O)[C@H](O)[C@H]4O)C(C)(C)[C@@H]3CC[C@]12C [20(R)-Ginsenoside Rh2] | 0%

Compound | OC43 Inhibition rate
C[C@]12CC[C@H](O)C[C@@]1(O)CC[C@@H]1[C@@H]2CC[C@]2(C)[C@@H](c3ccc(=O)oc3)CC[C@]12O [Telocinobufagin] | 4.6
CCN1C[C@]2(C)CC[C@H](O)[C@]34C1[C@@H](C[C@H]23)[C@@]1(O)C[C@H](OC)[C@H]2C[C@@H]4[C@@H]1[C@H]2O [Karacoline] | -0.5%
CC(C)=CCC[C@](C)(O)[C@H]1CC[C@]2(C)[C@@H]1[C@H](O)C[C@@H]1[C@@]3(C)CC[C@H](O[C@@H]4O[C@H](CO)[C@@H](O)[C@H](O)[C@H]4O)C(C)(C)[C@@H]3CC[C@]12C [Ginsenoside Rh2] | -1.4%
N#CCc1ccc(O)cc1 [4-Hydroxybenzyl cyanide] | -0.5
CC(C)=CCC[C@@](C)(O)[C@H]1CC[C@]2(C)[C@@H]1[C@H](O)C[C@@H]1[C@@]3(C)CC[C@H](O)C(C)(C)[C@@H]3[C@@H](O[C@@H]3O[C@H](CO)[C@@H](O)[C@H](O)[C@H]3O)C[C@]12C [(20R)-Ginsenoside Rh1] | -0.3%
C=C1[C@H](OC(C)=O)[C@@H](OC(=O)c2ccccc2)[C@@H](OC(C)=O)C(C)(C)[C@H]2O[C@](O)([C@H](C)C2=O)[C@@]2(OC(C)=O)C[C@H](C)[C@H](OC(C)=O)[C@@H]2[C@H]1OC(C)=O [Kansuinine A] | 1.5%
CC1=C2C[C@H]3[C@@H](CC(=O)[C@H]4C[C@@H](O)CC[C@@]43C)[C@@H]2CC[C@]12O[C@@H]1C[C@H](C)CN[C@H]1[C@H]2C [Peimisine] | 7.6%
CC(C)(O)[C@H]1O[C@H]2CC[C@@]3(C)[C@@](O)(CC[C@H]4Cc5c([nH]c6ccccc56)[C@@]43C)C2=CC1=O [Paxilline] | 5.6%
O=C1C=CC[C@@H]2[C@H]3CCC[N+]4([O-])CCC[C@@H](CN12)[C@@H]34 (some centres unmarked) [Oxysophocarpine] | -0.3%
CNC[C@H](N)C(=O)O [β-N-methylamino-L-alanine (hydrochloride)] | 0.7%
C/C(=C\c1csc(C)n1)[C@@H]1C[C@@H]2O[C@@H]2CCC[C@H](C)[C@H](O)[C@@H](C)C(=O)C(C)(C)[C@@H](O)CC(=O)O1 [Epothilone A] | -0.9%
CCOC1c2c(ccc3c2OCO3)-c2ccc3cc4c(cc3c2N1C)OCO4 (centres unmarked) [Ethoxysanguinarine] | -0.4%
COC[C@@]12CC[C@H](OC)[C@@]34[C@@H]5C[C@@]6(O)[C@H](OC(=O)c7ccccc7)[C@@H]5[C@@](OC(C)=O)([C@@H]([C@H](OC)[C@H]13)[C@H]4N(C)C2)[C@@H](O)[C@@H]6OC [Hypaconitine] | 0%
CC1(C)[C@H]2O[C@H]2[C@H]2[C@](C)(O)[C@@H]3CC[C@@H]4[C@@H](O)[C@@]3(C[C@@H](O)[C@@]21O)C[C@@]4(C)O [Rhodojaponin III] | -0.8%
CC(C)[C@]12CC(=O)[C@H](C)[C@H]1C2 [α-Thujone] | 2.6%
C[C@H](CCC(=O)O)C[C@H](C)C[C@H](C)C(=O)/C=C(\O)[C@H](C)C[C@H](C)C/C=C/[C@@H](C)[C@@H](O)[C@@H](C)[C@@H](O)C[C@@H]1CC[C@@](C)([C@H]2CC[C@@](C)([C@@H](C)O)O2)O1 [Ionomycin (calcium)] | -3.3%

As a short view, part of the list above.
Compound | OC43 Inhibition rate
CC(C)[C@]12CC(=O)[C@H](C)[C@H]1C2 [α-Thujone] | 2.6%
C[C@H](CCC(=O)O)C[C@H](C)C[C@H](C)C(=O)/C=C(\O)[C@H](C)C[C@H](C)C/C=C/[C@@H](C)[C@@H](O)[C@@H](C)[C@@H](O)C[C@@H]1CC[C@@](C)([C@H]2CC[C@@](C)([C@@H](C)O)O2)O1 [Ionomycin (calcium)] | -3.3%
